# Publication PMC9117275
# Sequences of proteins named here, by UniProt entry; tags and fusion partners are left off. Residues count along the entry.
# UniProt P15056: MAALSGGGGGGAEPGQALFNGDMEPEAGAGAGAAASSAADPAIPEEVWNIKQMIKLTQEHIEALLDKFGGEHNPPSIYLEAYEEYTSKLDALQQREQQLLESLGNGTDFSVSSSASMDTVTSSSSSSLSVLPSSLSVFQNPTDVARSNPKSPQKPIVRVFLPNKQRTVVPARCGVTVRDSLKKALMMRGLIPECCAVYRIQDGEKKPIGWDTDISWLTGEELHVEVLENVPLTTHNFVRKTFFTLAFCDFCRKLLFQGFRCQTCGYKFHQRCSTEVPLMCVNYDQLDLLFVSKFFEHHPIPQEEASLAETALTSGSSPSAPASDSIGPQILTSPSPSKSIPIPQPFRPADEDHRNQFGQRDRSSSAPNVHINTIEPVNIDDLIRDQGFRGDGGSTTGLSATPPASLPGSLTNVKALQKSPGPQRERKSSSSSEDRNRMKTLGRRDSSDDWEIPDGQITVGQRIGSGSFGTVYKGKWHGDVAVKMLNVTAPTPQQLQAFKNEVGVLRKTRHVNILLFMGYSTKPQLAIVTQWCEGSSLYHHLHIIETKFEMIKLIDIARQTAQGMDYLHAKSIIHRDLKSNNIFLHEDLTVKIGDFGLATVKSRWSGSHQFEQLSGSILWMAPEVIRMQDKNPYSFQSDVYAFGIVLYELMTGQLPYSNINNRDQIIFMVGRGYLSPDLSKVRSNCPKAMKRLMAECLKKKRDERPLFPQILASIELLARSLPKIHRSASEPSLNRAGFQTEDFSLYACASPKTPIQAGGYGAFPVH
# UniProt P10809, residues 27-573: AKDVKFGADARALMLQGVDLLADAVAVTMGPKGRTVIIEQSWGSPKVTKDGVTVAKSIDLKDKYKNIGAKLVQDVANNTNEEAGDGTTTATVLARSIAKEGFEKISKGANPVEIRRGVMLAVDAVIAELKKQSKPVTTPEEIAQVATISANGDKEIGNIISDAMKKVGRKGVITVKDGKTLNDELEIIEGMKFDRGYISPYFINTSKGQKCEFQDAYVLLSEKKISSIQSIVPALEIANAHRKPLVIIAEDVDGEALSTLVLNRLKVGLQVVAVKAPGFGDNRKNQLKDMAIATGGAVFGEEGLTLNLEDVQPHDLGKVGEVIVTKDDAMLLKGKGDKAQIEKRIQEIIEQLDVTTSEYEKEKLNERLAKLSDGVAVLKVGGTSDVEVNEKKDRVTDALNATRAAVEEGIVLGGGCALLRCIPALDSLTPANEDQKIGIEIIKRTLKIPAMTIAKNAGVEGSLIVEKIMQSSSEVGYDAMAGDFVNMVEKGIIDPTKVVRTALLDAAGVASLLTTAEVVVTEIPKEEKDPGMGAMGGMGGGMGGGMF
# Results are given in words; binding and its absence hold for the method and conditions named. Binding seen in cells or lysates may run through a third protein. Here binding means that the protein was enriched with, or labelled near, the bait; the list need not be complete.
# Target: 3xFlag-BRAF (UniProt P15056)
# Experiment: affinity purification with mass spectrometry; HEK293T transfected with 3xFlag-BRAF for 24 h; lysate in IP lysis buffer (50 mM Tris pH 6.8, 30 mM NaCl, 1% Triton X-100, 1 mM PMSF) incubated with anti-Flag agarose beads for 12 h; bands cut from SDS-PAGE; LC-MS/MS
substance,measurement,value
"heat shock protein 60, endogenous, HEK293T (from UniProt P10809 27-573)",binding,binds
